Drawing on publication PMC10969049, this text covers binding for one substance.

By UniProt entry, the sequences of proteins in these tests, tags left out.
UniProt Q9UBN7: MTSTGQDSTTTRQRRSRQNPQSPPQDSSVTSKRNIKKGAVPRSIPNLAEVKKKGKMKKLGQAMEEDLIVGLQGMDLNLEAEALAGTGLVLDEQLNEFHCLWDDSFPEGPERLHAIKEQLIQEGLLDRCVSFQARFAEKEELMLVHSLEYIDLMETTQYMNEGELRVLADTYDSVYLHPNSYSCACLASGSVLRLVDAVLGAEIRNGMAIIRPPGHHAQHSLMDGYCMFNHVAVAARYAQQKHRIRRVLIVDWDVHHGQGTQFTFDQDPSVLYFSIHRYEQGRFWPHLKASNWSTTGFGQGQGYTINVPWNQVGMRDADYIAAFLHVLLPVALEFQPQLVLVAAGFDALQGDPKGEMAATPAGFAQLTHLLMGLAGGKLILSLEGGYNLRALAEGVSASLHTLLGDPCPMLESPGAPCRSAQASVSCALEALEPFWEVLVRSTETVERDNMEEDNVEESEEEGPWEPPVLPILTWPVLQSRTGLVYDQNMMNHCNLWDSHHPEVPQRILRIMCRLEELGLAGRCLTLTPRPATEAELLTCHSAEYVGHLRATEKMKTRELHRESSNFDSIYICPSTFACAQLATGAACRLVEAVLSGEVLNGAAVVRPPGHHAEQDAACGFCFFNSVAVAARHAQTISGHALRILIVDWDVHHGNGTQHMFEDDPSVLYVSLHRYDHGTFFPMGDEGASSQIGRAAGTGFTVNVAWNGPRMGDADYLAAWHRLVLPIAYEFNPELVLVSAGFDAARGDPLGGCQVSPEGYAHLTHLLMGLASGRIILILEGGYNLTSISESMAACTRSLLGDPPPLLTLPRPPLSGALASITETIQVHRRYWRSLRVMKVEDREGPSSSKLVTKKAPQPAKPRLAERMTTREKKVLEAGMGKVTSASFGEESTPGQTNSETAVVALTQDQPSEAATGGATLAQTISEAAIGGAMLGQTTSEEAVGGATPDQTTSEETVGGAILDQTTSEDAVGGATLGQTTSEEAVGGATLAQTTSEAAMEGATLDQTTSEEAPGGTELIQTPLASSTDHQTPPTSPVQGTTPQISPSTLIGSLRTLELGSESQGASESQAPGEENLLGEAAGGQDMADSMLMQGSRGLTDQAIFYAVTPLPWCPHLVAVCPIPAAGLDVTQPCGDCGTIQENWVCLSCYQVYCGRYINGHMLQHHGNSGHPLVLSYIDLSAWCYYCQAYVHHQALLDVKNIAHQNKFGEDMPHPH
UniProt P08047: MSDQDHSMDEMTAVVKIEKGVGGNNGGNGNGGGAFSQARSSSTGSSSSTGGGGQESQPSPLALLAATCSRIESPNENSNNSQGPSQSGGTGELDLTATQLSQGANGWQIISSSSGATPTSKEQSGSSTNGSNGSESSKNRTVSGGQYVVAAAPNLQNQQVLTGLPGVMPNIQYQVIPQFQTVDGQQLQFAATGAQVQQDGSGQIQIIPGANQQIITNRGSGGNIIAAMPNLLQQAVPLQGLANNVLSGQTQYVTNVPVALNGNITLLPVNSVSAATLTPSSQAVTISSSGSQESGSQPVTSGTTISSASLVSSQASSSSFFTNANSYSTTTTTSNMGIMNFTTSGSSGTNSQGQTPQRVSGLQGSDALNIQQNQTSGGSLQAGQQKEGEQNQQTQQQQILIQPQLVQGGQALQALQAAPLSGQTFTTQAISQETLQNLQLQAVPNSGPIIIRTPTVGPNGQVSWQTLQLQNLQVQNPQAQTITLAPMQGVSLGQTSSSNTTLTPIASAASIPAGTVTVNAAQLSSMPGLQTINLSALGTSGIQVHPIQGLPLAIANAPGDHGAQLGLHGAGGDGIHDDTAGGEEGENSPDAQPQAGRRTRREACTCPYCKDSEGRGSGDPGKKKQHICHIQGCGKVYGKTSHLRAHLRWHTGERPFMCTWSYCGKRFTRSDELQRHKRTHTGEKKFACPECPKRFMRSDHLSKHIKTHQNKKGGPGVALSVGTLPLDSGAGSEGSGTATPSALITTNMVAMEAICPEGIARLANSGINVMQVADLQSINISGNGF

This assay concerns the target HA-tagged HDAC6 (histone deacetylase 6) (human) (UniProt Q9UBN7). Description: co-IP; HA-tagged HDAC6 precipitated with anti-HA affinity agarose beads from 293T cell lysate; binding buffer 50 mM HEPES, 150 mM NaCl, 1% Triton X-100, pH 7.5, protease inhibitors; SP1 detected by blot; n = 3.

These are yes or no findings as the source states them, for the method shown. Binding seen in cells or lysates may run through a third protein. Some results given as binding are weak or reduced against the parent protein; the word gives no strength.

As to “transcription factor SP1 (from UniProt P08047 1-785)”, the binding result is “binds”.
